Source: doi:10.1101/2025.01.06.631460 (bioRxiv, 2025)
Like-named read-outs stand apart in the source and are kept apart here. Results are given in words; binding and its absence hold for the method and conditions named. In cells and extracts the contact can be indirect. For some assays here: Binding can be weak; no strength is given.

How the values were obtained:
Assay in all cases: FRET or BRET
[1] = biological target: T1, CNGC14-mCitrine (Arabidopsis thaliana) (UniProt Q9SJA4)
T1 sequence: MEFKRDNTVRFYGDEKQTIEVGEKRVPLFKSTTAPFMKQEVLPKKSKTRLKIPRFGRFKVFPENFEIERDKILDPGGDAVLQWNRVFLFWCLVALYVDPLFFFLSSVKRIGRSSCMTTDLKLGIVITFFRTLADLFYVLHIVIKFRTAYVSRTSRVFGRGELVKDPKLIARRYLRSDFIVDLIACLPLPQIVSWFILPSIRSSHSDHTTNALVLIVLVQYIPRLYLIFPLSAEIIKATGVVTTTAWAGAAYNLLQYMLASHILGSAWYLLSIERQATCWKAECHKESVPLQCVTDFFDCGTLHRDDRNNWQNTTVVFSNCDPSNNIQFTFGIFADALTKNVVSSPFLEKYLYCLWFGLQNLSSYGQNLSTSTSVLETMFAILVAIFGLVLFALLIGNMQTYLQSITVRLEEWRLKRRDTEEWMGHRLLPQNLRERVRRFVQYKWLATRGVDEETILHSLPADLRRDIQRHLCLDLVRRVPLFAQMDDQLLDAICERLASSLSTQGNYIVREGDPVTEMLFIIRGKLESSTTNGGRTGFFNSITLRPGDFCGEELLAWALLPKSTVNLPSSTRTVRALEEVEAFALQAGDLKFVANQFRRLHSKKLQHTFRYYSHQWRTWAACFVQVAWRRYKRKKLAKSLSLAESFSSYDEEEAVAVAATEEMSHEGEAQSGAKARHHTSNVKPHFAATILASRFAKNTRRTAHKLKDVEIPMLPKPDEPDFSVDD

[2] = biological target: CNGC14ΔIQ (Arabidopsis thaliana) (UniProt Q9SJA4)
[3] = biological target: T2, CNGC2-mCitrine (Arabidopsis thaliana) (UniProt O65718)
T2 sequence: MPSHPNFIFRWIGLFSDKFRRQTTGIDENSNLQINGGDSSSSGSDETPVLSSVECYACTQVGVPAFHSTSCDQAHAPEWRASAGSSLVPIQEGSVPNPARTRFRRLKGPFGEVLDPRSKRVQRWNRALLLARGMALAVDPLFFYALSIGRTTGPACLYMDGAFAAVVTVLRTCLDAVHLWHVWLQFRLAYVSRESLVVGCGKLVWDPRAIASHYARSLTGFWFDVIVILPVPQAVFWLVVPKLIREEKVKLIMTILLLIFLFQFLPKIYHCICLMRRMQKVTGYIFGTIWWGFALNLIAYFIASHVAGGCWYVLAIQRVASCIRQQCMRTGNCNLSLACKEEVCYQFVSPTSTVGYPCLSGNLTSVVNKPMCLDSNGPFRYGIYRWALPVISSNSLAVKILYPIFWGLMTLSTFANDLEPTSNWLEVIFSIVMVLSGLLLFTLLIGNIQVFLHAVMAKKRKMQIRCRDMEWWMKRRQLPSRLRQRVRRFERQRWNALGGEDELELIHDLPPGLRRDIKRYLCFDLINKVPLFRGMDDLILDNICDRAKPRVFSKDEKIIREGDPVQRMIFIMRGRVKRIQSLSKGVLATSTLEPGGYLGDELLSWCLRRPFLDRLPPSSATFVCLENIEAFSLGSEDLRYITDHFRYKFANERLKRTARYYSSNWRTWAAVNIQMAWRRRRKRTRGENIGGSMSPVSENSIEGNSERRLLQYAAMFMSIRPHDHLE

[4] = biological target: T1, CNGC14-mCitrine (Arabidopsis thaliana); remark: listed apart in the source
[5] = biological target: T2, CNGC2-mCitrine (Arabidopsis thaliana); remark: listed apart in the source

- binding [1]: binds
- binding [2]: no binding
- binding [3]: binds
- binding [4]: binds
- binding [5]: binds
Substance: ARO2-mCherry (from UniProt Q9FKW5)
